Consider one molecule from publication PMC6171917.

By UniProt entry, the sequences of proteins in these tests, tags left out. Where a name states a change or a piece, a line headed by the entry shows the natural chain unless it says otherwise.
UniProt P17661: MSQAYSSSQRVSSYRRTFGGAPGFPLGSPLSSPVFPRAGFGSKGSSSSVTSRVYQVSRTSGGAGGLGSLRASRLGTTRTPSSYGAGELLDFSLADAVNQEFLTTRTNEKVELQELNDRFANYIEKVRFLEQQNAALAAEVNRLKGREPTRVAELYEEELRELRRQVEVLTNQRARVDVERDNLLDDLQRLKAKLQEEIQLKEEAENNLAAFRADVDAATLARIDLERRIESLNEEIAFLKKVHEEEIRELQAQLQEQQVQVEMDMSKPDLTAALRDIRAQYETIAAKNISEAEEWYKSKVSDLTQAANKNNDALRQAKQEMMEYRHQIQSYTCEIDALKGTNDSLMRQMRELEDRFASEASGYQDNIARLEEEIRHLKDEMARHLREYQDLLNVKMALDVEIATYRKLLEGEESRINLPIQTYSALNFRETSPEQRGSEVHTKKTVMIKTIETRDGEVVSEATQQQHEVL
UniProt P13647: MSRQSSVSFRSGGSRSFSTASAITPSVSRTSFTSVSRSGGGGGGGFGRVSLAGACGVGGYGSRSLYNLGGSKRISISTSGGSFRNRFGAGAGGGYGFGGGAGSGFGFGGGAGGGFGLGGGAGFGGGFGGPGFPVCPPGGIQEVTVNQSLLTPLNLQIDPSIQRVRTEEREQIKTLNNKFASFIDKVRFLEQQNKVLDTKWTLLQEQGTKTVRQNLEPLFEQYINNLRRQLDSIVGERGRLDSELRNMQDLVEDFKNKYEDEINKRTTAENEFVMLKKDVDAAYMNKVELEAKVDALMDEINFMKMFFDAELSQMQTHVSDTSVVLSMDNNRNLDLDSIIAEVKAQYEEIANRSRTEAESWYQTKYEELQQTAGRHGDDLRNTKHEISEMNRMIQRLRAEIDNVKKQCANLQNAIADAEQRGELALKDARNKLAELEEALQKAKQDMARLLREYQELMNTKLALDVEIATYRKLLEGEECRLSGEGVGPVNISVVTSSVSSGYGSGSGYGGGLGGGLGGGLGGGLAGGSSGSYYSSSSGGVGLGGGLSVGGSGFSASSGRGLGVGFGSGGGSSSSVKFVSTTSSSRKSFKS

Results are given in words; binding and its absence hold for the method and conditions named. Some binding calls cover weakened binding; strength is not graded here. Tags and fused reporters may be left off the sequences shown.

Experiment [1] has as its target desmin, full-length (UniProt P17661). The experiment is described as follows: far-Western, overlay or dot blot; FluoBACE overlay of western blot: whole extracts from E. coli expressing the proteins on 15% SDS-PAGE, transferred, overlaid 1 h at 4°C with soluble HEK 293T extract with EGFP-DSP C-terminus (67 ± 17 nM total), fluorescence scan. Background: In western blotting, separated proteins are transferred to a membrane and probed.

Experiment [2] concerns the target H6-small ubiquitin-related modifier (SUMO) [SUMO: Q12306]. The experiment is described as follows: far-Western, overlay or dot blot; FluoBACE overlay of western blot: purified proteins (4 μg/lane) on 15% SDS-PAGE, transferred, blocked in PBS 5% skim milk, overlaid 1 h at 4°C with soluble HEK 293T extract with EGFP-DSP C-terminus (67 ± 17 nM total), fluorescence scan; only the target purified.

Experiment [3] deals with desmin, full-length (UniProt P17661). The description is as above.
Experiment [4] deals with K5/K14 (mixture or heterodimer of full-length cytokeratins 5 and 14) (UniProt P13647). The experiment is described as follows: far-Western, overlay or dot blot; FluoBACE dot blot: Ks, individual or mixed, spotted on nitrocellulose (3 pmol/spot) in Tris-HCl/DTT/urea buffers; overlaid with soluble extracts of HEK 293T cells expressing EGFP-DSP C-terminus (64 ± 29 nM or 55 ± 21 nM total) and scanned for fluorescence; only the target purified.

B1: EGFP-DSP C-terminus (C-terminus of desmoplakin tagged at the N-terminus with EGFP) (domain or fragment, UniProt P15924-1 2194-2871)
chain: PHTGLLLLSVQKRSMSFQGIRQPVTVTELVDSGILRPSTVNELESGQISYDEVGERIKDFLQGSSCIAGIYNETTKQKLGIYEAMKIGLVRPGTALELLEAQAATGFIVDPVSNLRLPVEEAYKRGLVGIEFKEKLLSAERAVTGYNDPETGNIISLFQAMNKELIEKGHGIRLLEAQIATGGIIDPKESHRLPVDIAYKRGYFNEELSEILSDPSDDTKGFFDPNTEENLTYLQLKERCIKDEETGLCLLPLKEKKKQVQTSQKNTLRKRRVVIVDPETNKEMSVQEAYKKGLIDYETFKELCEQECEWEEITITGSDGSTRVVLVDRKTGSQYDIQDAIDKGLVDRKFFDQYRSGSLSLTQFADMISLKNGVGTSSSMGSGVSDDVFSSSRHESVSKISTISSVRNLTIRSSSFSDTLEESSPIAAIFDTENLEKISITEGIERGIVDSITGQRLLEAQACTGGIIHPTTGQKLSLQDAVSQGVIDQDMATRLKPAQKAFIGFEGVKGKKKMSAAEAVKEKWLPYEAGQRFLEFQYLTGGLVDPEVHGRISTEEAIRKGFIDGRAAQRLQDTSSYAKILTCPKTKLKISYKDAINRSMVEDITGLRLLEAASVSSKGLPSPYNMSSAPGSRSGSRSGSRSGSRSGSRSGSRRGGFDATGNSSYSYSYSFSSSSIGH
In the case of B1, the binding result in experiment [1] is reported as “binds”; in experiment [2], “no binding (tested: 67 ± 17 nM, total concentration)”; in experiment [3], “binds”; in experiment [4] it was “binds”.
